The supplement of paper PMC4604168 (melanoma cell lines)
This is one part of the list. Repeats are few or missing, and single values can be far off.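 Imaging used 1,536-well plates; nuclei positive for cleaved PARP by antibody were divided by total DNA-stained nuclei to yield the apoptosis fraction. Doses for screening kept most cells viable, and cell lines differ markedly in resting and induced cleaved-PARP levels.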

Columns and labels:
Experiment in all cases: cleaved PARP positive nuclei fraction relative to DMSO control; melanoma cells; higher = more apoptosis
Details in all cases: library dose: low library concentration; 72 h
MZ2-MEL = system: MZ2-MEL
MeWo = system: MeWo
RPMI7951 = system: RPMI7951
RVH-421 = system: RVH-421
SkMel28 = system: SkMel28
SkMel2 = system: SkMel2
SkMel30 = system: SkMel30
SkMel5 = system: SkMel5
UACC257 = system: UACC257
UACC62 = system: UACC62
WM115 = system: WM115
WM1716 = system: WM1716
WM1745 = system: WM1745
WM3526 = system: WM3526
WM3619 = system: WM3619
WM451Lu = system: WM451Lu

SMILES	cleaved PARP positive nuclei fraction (MZ2-MEL) [%]	cleaved PARP positive nuclei fraction (MeWo) [%]	cleaved PARP positive nuclei fraction (RPMI7951) [%]	cleaved PARP positive nuclei fraction (RVH-421) [%]	cleaved PARP positive nuclei fraction (SkMel28) [%]	cleaved PARP positive nuclei fraction (SkMel2) [%]	cleaved PARP positive nuclei fraction (SkMel30) [%]	cleaved PARP positive nuclei fraction (SkMel5) [%]	cleaved PARP positive nuclei fraction (UACC257) [%]	cleaved PARP positive nuclei fraction (UACC62) [%]	cleaved PARP positive nuclei fraction (WM115) [%]	cleaved PARP positive nuclei fraction (WM1716) [%]	cleaved PARP positive nuclei fraction (WM1745) [%]	cleaved PARP positive nuclei fraction (WM3526) [%]	cleaved PARP positive nuclei fraction (WM3619) [%]	cleaved PARP positive nuclei fraction (WM451Lu) [%]
CC(C)C[C@H](NC(=O)[C@H](Cc1ccccc1)NC(=O)c1cnccn1)B(O)O [Bortezomib] + c1cc(-c2cnn3cc(-c4ccc(OCCN5CCCCC5)cc4)cnc23)ccn1 [Dorsomorphin] (first compound 0.001 µM, partner dose 0.4 µM)	370	184	35.9	309	87.7	65.9	422	165	272	199	39.8	1100	148	77.4	592	331
C[C@@H](Oc1cc(-c2cnn(C3CCNCC3)c2)cnc1N)c1c(Cl)ccc(F)c1Cl [Crizotinib] + C[C@@H]1CCN(C(=O)CC#N)C[C@@H]1N(C)c1ncnc2[nH]ccc12 [CP690550] (first compound 0.2 µM, partner dose 1 µM)	38.8	185	46.7	124	53.8	141	56.3	75.9	44.9	140	39.4	43.3	91.7	58.2	81	56.6
Nc1nc(F)nc2c1ncn2[C@@H]1O[C@H](CO)[C@@H](O)[C@@H]1O [fludarabine] + Cn1cncc1[C@@](N)(c1ccc(Cl)cc1)c1ccc2c(c1)c(-c1cccc(Cl)c1)cc(=O)n2C [tipifarnib] (first compound 0.2 µM, partner dose 0.01 µM)	82.3	559	57.7	131	283	216	811	188	652	208	116	172	100	527	128	242
CS(=O)(=O)CCNCc1ccc(-c2ccc3ncnc(Nc4ccc(OCc5cccc(F)c5)c(Cl)c4)c3c2)o1 [lapatinib] + CCc1ccc(CCOc2ccc(CC3SC(=O)NC3=O)cc2)nc1 [pioglitazone] (first compound 0.8 µM, partner dose 2 µM)	125	55	158	50.6	19.4	71.9	279	77.5	107	97.7	34.2	70.3	105	84.3	112	161
CS(=O)(=O)CCNCc1ccc(-c2ccc3ncnc(Nc4ccc(OCc5cccc(F)c5)c(Cl)c4)c3c2)o1 [lapatinib] + O=C1NC(=O)/C(=C/c2ccc(-c3ccc(F)cc3O)o2)S1 [AS252424] (first compound 0.8 µM, partner dose 1 µM)	101	151	72.4	180	87.9	95.1	37.8	219	211	140	57.5	33	77.4	172	110	306
Cn1c(=O)n(-c2ccc(C(C)(C)C#N)cc2)c2c3cc(-c4cnc5ccccc5c4)ccc3ncc21 + O=c1cc(-c2cccc3c2Sc2ccccc2S3)oc(N2CCOCC2)c1 [KU55933] (first compound 0.004 µM, partner dose 1 µM)	129	25.1	185	135	155	122	94.7	66.9	49.7	127	168	79.8	95.2	198	124	321
Nc1nc(F)nc2c1ncn2[C@@H]1O[C@H](CO)[C@@H](O)[C@@H]1O [fludarabine] + O=C(O)C(=O)Nc1sc2c(c1C(=O)O)CCNC2 [TCS401] (first compound 0.2 µM, partner dose 1.66667 µM)	38.1	299	33	107	85.4	140	273	171	267	155	45.2	69.8	93.2	96.2	77.3	312
Nc1ccn([C@@H]2O[C@H](CO)[C@@H](O)C2(F)F)c(=O)n1 [gemcitabine] + CC(C)CCN1c2nc(Nc3cc(F)c(O)c(F)c3)ncc2N(C)C(=O)C1C [BID1870] (first compound 0.0004 µM, partner dose 0.2 µM)	123	133	30.1	76	158	110	265	76.9	344	155	96.2	69.4	137	81.7	136	126
Cn1c(=O)n(-c2ccc(C(C)(C)C#N)cc2)c2c3cc(-c4cnc5ccccc5c4)ccc3ncc21 + O=C(CCCCCCC(=O)Nc1ccccc1)NO [vorinostat] (first compound 0.004 µM, partner dose 0.08 µM)	52.9	90.8	100	24.8	40.4	100	63.4	73.7	67.1	180	74.8	46	84	72.1	95.9	95.4
Nc1ncn([C@H]2C[C@H](O)[C@@H](CO)O2)c(=O)n1 [decitabine] + C[C@@H]1CCN(C(=O)CC#N)C[C@@H]1N(C)c1ncnc2[nH]ccc12 [CP690550] (first compound 0.1 µM, partner dose 1 µM)	89.5	29.6	233	105	40.5	154	60.2	73.8	142	192	147	120	107	52.3	101	25.4
Nc1ncn([C@H]2C[C@H](O)[C@@H](CO)O2)c(=O)n1 [decitabine] + CN(NC(=O)CC(=O)NN(C)C(=S)c1ccccc1)C(=S)c1ccccc1 [STA4783] (first compound 0.1 µM, partner dose 0.006 µM)	129	78.5	164	77.6	447	106	63.1	40	192	116	235	52.9	105	114	87.3	83.7
Cc1cc(Nc2cc(N3CCN(C)CC3)nc(/C=C/c3ccccc3)n2)n[nH]1 + O=c1cc(-c2cccc3c2Sc2ccccc2S3)oc(N2CCOCC2)c1 [KU55933] (first compound 0.04 µM, partner dose 1 µM)	109	90	93.1	103	115	56.6	187	71.7	55.9	120	77	48.6	88.3	71.8	90.6	139
CNC(=O)c1cc(Oc2ccc(NC(=O)Nc3ccc(Cl)c(C(F)(F)F)c3)cc2)ccn1 [sorafenib] + Cc1ccc(NC(=O)c2cccc(N(C)C)c2)cc1NC(=O)c1ccc(O)cc1 [ZM336372] (first compound 0.4 µM, partner dose 2 µM)	137	121	106	82.4	38.3	94.6	415	46.1	33.5	23.7	18.6	142	112	74.4	89.2	48.8
CC(C)C[C@H](NC(=O)[C@H](Cc1ccccc1)NC(=O)c1cnccn1)B(O)O [Bortezomib] + CC(C)CCN1c2nc(Nc3cc(F)c(O)c(F)c3)ncc2N(C)C(=O)C1C [BID1870] (first compound 0.001 µM, partner dose 0.2 µM)	151	83.3	80.9	157	105	77	108	78.5	103	300	85.7	990	134	45.6	780	110
C=C(c1ccc(C(=O)O)cc1)c1cc2c(cc1C)C(C)(C)CCC2(C)C [Bexarotene] + Cn1cc(/C=C2\C(=O)Nc3cccnc32)c2ccccc21 [GW441756] (first compound 2 µM, partner dose 0.4 µM)	106	40	192	133	94.8	50	84.4	189	187	82.3	88.9	123	84.4	354	91.4	89.2
C=C(c1ccc(C(=O)O)cc1)c1cc2c(cc1C)C(C)(C)CCC2(C)C [Bexarotene] + CC1(C)NC(=O)N(c2ccc([N+](=O)[O-])c(C(F)(F)F)c2)C1=O [nilutamide] (first compound 2 µM, partner dose 1 µM)	60.5	127	60	264	48.6	69.2	31.7	74.4	38.3	33.1	143	53.5	95.8	126	97.9	122
Nc1nc(F)nc2c1ncn2[C@@H]1O[C@H](CO)[C@@H](O)[C@@H]1O [fludarabine] + NC(=O)Nc1cc(-c2cccc(F)c2)sc1C(=O)N[C@H]1CCCNC1 [AZD7762] (first compound 0.2 µM, partner dose 0.02 µM)	83.7	623	349	150	45.2	258	419	171	238	197	83.8	156	105	165	203	155
Nc1nc(F)nc2c1ncn2[C@@H]1O[C@H](CO)[C@@H](O)[C@@H]1O [fludarabine] + C[C@@H]1CCN(C(=O)CC#N)C[C@@H]1N(C)c1ncnc2[nH]ccc12 [CP690550] (first compound 0.2 µM, partner dose 1 µM)	126	664	66.7	97.2	68	783	357	659	132	91.7	103	116	90.1	110	97.7	239

Rewritten comma-delimited: entries from further up.
SMILES,cleaved PARP positive nuclei fraction (MZ2-MEL) [%],cleaved PARP positive nuclei fraction (MeWo) [%],cleaved PARP positive nuclei fraction (RPMI7951) [%],cleaved PARP positive nuclei fraction (RVH-421) [%],cleaved PARP positive nuclei fraction (SkMel28) [%],cleaved PARP positive nuclei fraction (SkMel2) [%],cleaved PARP positive nuclei fraction (SkMel30) [%],cleaved PARP positive nuclei fraction (SkMel5) [%],cleaved PARP positive nuclei fraction (UACC257) [%],cleaved PARP positive nuclei fraction (UACC62) [%],cleaved PARP positive nuclei fraction (WM115) [%],cleaved PARP positive nuclei fraction (WM1716) [%],cleaved PARP positive nuclei fraction (WM1745) [%],cleaved PARP positive nuclei fraction (WM3526) [%],cleaved PARP positive nuclei fraction (WM3619) [%],cleaved PARP positive nuclei fraction (WM451Lu) [%]
"CS(=O)(=O)CCNCc1ccc(-c2ccc3ncnc(Nc4ccc(OCc5cccc(F)c5)c(Cl)c4)c3c2)o1 [lapatinib] + CCc1ccc(CCOc2ccc(CC3SC(=O)NC3=O)cc2)nc1 [pioglitazone] (first compound 0.8 µM, partner dose 2 µM)",125,55,158,50.6,19.4,71.9,279,77.5,107,97.7,34.2,70.3,105,84.3,112,161
"CS(=O)(=O)CCNCc1ccc(-c2ccc3ncnc(Nc4ccc(OCc5cccc(F)c5)c(Cl)c4)c3c2)o1 [lapatinib] + O=C1NC(=O)/C(=C/c2ccc(-c3ccc(F)cc3O)o2)S1 [AS252424] (first compound 0.8 µM, partner dose 1 µM)",101,151,72.4,180,87.9,95.1,37.8,219,211,140,57.5,33,77.4,172,110,306
